## Screening data, single-dose tests

Amino acid sequences for entries named in this document (tags omitted).
UniProt I6X8D2, whole entry: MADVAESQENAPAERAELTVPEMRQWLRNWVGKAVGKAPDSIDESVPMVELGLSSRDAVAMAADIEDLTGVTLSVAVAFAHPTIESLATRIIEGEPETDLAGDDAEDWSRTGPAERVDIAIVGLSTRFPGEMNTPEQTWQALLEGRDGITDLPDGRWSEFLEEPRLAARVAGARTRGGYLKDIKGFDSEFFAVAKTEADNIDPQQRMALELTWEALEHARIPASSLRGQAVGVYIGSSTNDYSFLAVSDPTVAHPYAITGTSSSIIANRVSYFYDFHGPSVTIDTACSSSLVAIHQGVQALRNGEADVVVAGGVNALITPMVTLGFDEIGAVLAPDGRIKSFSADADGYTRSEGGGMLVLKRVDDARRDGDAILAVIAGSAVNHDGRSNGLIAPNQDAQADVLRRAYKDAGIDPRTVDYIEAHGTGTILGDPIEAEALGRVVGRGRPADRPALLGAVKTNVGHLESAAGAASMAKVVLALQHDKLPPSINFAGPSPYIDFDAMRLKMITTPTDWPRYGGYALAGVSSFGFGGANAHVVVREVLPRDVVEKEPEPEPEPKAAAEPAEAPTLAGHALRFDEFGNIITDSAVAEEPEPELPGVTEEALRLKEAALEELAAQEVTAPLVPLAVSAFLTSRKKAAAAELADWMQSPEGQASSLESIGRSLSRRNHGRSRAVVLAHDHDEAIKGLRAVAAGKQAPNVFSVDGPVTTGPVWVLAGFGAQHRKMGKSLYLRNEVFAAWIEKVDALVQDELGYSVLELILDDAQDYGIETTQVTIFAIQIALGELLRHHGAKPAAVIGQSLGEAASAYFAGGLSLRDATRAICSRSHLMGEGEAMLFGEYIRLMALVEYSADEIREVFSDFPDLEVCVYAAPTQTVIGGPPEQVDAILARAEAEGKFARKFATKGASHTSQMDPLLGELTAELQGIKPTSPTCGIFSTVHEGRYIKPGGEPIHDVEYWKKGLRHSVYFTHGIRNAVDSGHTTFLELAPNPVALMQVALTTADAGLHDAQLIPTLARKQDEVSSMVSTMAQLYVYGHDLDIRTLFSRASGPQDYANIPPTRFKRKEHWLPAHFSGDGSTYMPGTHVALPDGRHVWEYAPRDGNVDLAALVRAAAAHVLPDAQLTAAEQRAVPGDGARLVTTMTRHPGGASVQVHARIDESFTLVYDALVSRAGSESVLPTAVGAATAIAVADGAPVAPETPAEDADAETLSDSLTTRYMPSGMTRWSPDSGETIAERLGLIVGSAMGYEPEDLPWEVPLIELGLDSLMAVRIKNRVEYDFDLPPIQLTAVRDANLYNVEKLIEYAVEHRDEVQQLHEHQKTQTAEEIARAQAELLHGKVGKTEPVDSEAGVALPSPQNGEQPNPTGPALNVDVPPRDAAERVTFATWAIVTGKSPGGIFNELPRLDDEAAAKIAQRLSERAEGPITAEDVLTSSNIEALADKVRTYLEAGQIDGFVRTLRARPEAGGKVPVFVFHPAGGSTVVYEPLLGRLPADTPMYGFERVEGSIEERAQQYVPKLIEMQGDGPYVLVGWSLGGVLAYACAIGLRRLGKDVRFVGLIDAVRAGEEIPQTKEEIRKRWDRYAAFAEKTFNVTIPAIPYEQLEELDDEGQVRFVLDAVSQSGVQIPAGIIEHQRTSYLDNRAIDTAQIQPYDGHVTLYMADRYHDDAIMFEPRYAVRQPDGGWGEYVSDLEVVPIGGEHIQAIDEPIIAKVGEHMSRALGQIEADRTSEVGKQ

Results are given as percent effect. How 0% and 100% were set is not recorded. Most values in the screen are low, and negative values occur. The compounds are a random part of those screened.

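Polyketide synthase Pks13, Mycobacterium tuberculosis (UniProt I6X8D2). Enzyme assay of the thioesterase domain of polyketide synthase 13; the read-out is not stated. Compounds at 30 µM. Higher reads as stronger inhibition (inferred from which compounds were picked for retests). Of about 67,000 compounds tested this way, about 300 (0.46%) reached 50% or more in at least one test.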

compound	effect
Cn1cc(Br)cc(NC(=O)Cc2cccs2)c1=O	-8.866
Cc1cc(C)n(CC2CCCN2C(=O)c2cnc3n[nH]c(C)c3c2)n1 (configuration not stated)	-13.5
CNS(=O)(=O)c1cccc(C(=O)N(C)Cc2ccsc2)c1	-11.27
OC1(CN2CCCC2)COCCN(c2noc(-c3ccccc3)n2)C1 (configuration not stated)	-5.877
COCCN1CCN(c2nc(C3CCCC3)nc3c2cnn3C)CC1	-36.21
COc1cccc(C2CCCN2C(=O)c2ccc(=O)n(C)c2)c1 (configuration not stated)	-25.11
Cc1ncc(CN2C[C@H]3C[C@H](OCc4ccccc4)C[C@H]3C2)cn1	5.479
FC(F)(F)COCCN1CCOC(Cn2cccn2)C1 (configuration not stated)	-12.08
NC(=O)[C@@H]1CCCN1C(=O)c1cn(C/C=C/c2ccccc2)nn1	1.274
Cc1ccc(Cl)c2ccc(NC(CO)CO)nc12	0.8403
CCS(=O)(=O)N1CCCC(c2ccnc(N(C)C)c2)C1 (configuration not stated)	-2.898
CCN(CC)S(=O)(=O)CCNc1ncnc2cc(F)c(F)cc12	2.836
CC(=O)N[C@@H]1CN(C2CCN(c3cccc(Cl)c3)CC2)C[C@H]1C(C)C	-33.27
CC(C)(N)CN1CCC(c2nnc(CN3CCCC3)n2C2CC2)CC1	-18.46
c1nc2c(c(N3CCOC(Cn4cncn4)C3)n1)CCC2 (configuration not stated)	-27.77
O=C(O)c1csc(S(=O)(=O)Nc2cccc(OCC(F)(F)F)c2)c1	50.05
O=C(Cc1cn2ccsc2n1)N1CCOCC(O)(CN2CCCC2)C1 (configuration not stated)	-2.78
CCOc1ccc(C(=O)N2CCCC2c2c(C)nn(C)c2OC)cn1 (configuration not stated)	-8.359
Cc1ncc(C(=O)NCCNc2ncccc2C#N)s1	-3.164
CN(Cc1ccco1)C(=O)Nc1ccc(=O)n(C)c1	9.618
O=C(CCN1C(=O)CCC1=O)Nc1ccc(OCC(F)(F)F)nc1	-20.11
CC(C)CN1CC2(CCN(C(=O)C(O)c3cccc(Cl)c3)CC2)CC1=O (configuration not stated)	-6.259
CCN1CC(COC(=O)c2cc(Br)ccc2F)CC1=O (configuration not stated)	-12.12
CC(=O)NCC1CCN(C(=O)CCOc2ccc(C(C)C)cc2)CC1	4.048
CCS(=O)(=O)NCc1cc(Br)c(OC)c(OC)c1	23.42
CS(=O)(=O)NCC(=O)NC1CCc2nccn2C1 (configuration not stated)	-6.644
CN(C)C(C(=O)NCC(F)(F)F)c1cccc(F)c1 (configuration not stated)	-12.39
O=C(CSc1nnc(N2CCCC2)s1)NC(=O)Nc1ccccc1	-21.39
CN1CCN(Cc2ccccc2CNC(=O)c2cc(Br)ccc2F)CC1	-7.438
COCC(=O)N1CCC2(COCc3cnc(NCc4ccco4)nc32)C1 (configuration not stated)	-6.92
Cc1cc(C(=O)NCC(C)N2CCc3ccccc32)on1 (configuration not stated)	-4.33
CCCn1cnc2c(cnn2-c2cccc(C)c2C)c1=O	12.55
CN(C)C[C@H]1CC[C@@H](Cc2ccc3c(cnn3C)c2)O1	-22.37
C[C@@H]1CN(S(=O)(=O)N2CCCC2)CC[C@@]1(O)C1CCOCC1	-33.46
Cc1cccc(C(C(=O)NCc2nc(-c3cccnc3)no2)N(C)C)c1 (configuration not stated)	-12.92
CN1CCN([C@H]2CCN(C(=O)c3nn(C)cc3Cl)C[C@H]2CCCO)CC1	-8.905
CCc1nc(CCn2cc(-c3nccn3C)nn2)no1	-34.87
CCn1cc(CNCCNc2ncc(Cl)cc2Cl)cn1	-5.605
CCCNC(c1cccnc1)c1ccc(F)c(C)c1 (configuration not stated)	-2.996
COc1ccc(C(=O)NCc2ccco2)nn1	-8.918
C=C(C)CSc1nnc(CCNC(=O)OC(C)(C)C)o1	-7.036
CCc1cnc(CNc2ccc(C(=O)N3CCCC(C)C3)cc2C)o1 (configuration not stated)	2.896
CNC(=O)c1cn2cc(-c3cccc(Cl)c3)n(CC=C(C)C)c(=O)c2n1	-225.4
CN(Cc1cccc(F)c1)C(=O)CN1CCOC(Cn2cncn2)C1 (configuration not stated)	-30.22
CCN(CC)Cc1ccccc1NC(=O)N(C)Cc1ccccc1O	-8.324
CCN(CC1CCOC1)C(=O)c1nc(-c2ccco2)sc1C (configuration not stated)	-11.79
COC[C@]12COC[C@H]1CN(C(=O)C1CC(F)(F)C1)C2	-22.11
CCN(C)C(=O)c1ncn2c(C3CCN(S(C)(=O)=O)CC3)ccnc12	-9.434
Cc1cccc(C(=O)N2CC[C@]3(C[C@H](OCc4ccccn4)CO3)C2)c1	-55.48
Cc1noc(C)c1S(=O)(=O)N1CCC(Oc2ccccn2)CC1	-0.701
N#Cc1ccccc1N1CCCN(C(=O)CCc2ccco2)CC1	8.974
CC(C)NC(=O)c1nnn(-c2ccccc2)c1C1CC1	-12.6
CCS(=O)(=O)NC(CCSC)C(=O)Nc1cc(F)ccc1C (configuration not stated)	-2.031
Cc1noc(C)c1-c1cccc(C2CCCNC2)n1 (configuration not stated)	0.2374
Cc1cccc(C)c1OCC(=O)NC(C)c1nnc2n1CCC2 (configuration not stated)	-25.98
CCC1(c2ccc(NS(=O)(=O)c3cccs3)cc2)CCC(=O)NC1=O (configuration not stated)	-9.245
Cc1cnn(CCCNC(=O)NC(C)C(=O)Nc2ccccc2)c1 (configuration not stated)	6.679
CCOC(=O)N1CC2(CCNCC2)c2cc(Cl)ccc21	-24.97
CN(C)c1ncc2c(n1)N(C)CCN(CC1CC1)C2=O	-4.02
O=c1[nH]c(-c2cccnc2)nc2c1CCN(S(=O)(=O)N1CCCC1)C2	-3.631
Cc1cc(C)n(-c2ccc(C(=O)NCC(CO)Cc3cccs3)cc2)n1 (configuration not stated)	-24.2
COc1ccc(NC(=O)N(C)Cc2ccco2)cn1	-29.22
CCN(CC)S(=O)(=O)c1ccc2c(c1)N(Cc1ccncc1)C(=O)CS2	-18.31
CSC1=Nc2c(cnn2-c2ccccc2)C2=NCCCN12	-15.16
CCN1CCN(Cc2c(C3CCCC3)[nH]c3ncccc23)CC1	13.64
Cc1noc(CN(CCc2ccco2)Cc2cccc(C#N)c2)n1	-26.35
CC(NC(=O)NCC1(c2ccc(F)cc2)CCCC1)c1nncn1C (configuration not stated)	-3.055
CC(=O)NCC(=O)NC1CCc2nccn2C1 (configuration not stated)	-4.759
CC(=O)N1N=C(c2ccco2)OC1C(=O)NCCc1ccc(O)cc1 (configuration not stated)	8.81
COCCN1CCN(Cc2noc(C3CC3)n2)CC1C (configuration not stated)	-21.99
COc1ccc(COCC(=O)N2CCC(c3nncn3C)CC2)cc1	-7.967
COCC(O)CN(C)c1cc(C(F)(F)F)nc(-c2cccnc2)n1 (configuration not stated)	-17.6
Cc1ccc(NC2CCN(C(=O)CCC3CCCO3)CC2)nn1 (configuration not stated)	-3.493
Cc1nccc(C(=O)N2CCCC2c2c(C)nn(C)c2C)n1 (configuration not stated)	-13.3
Cc1cc(C(=O)NCCn2nc3ccccn3c2=O)[nH]n1	5.866
CNC(=O)CN(C)C(=O)c1cc(Cl)c(Cl)n1C	6.195
Cc1noc(C)c1CNC(=O)c1cn(CCC2CCCCN2)nn1 (configuration not stated)	-23.3
CCCOC(=O)N1CCCC(c2nnc(CN3CCOCC3)n2C)C1 (configuration not stated)	-0.5919
CCn1c(CC2CCN(C(=O)C3CCOC3)CC2)nn(C)c1=O (configuration not stated)	-12.03
Cc1ocnc1C(=O)N1CCN(Cc2ccccc2)[C@@H]2CS(=O)(=O)C[C@@H]21	-13.76
CC(C)c1nncn1CCNC(=O)c1ccc(Cl)cc1O	8.157
CC1CCN(C(=O)CSCc2noc(C(C)C)n2)CC1	4.065
COCCN1CCCC2(CCN(Cc3nnc(C4CC4)o3)C2)C1=O (configuration not stated)	-3.443
O=c1ccc(-n2cccn2)nn1CCNS(=O)(=O)c1ccc(F)c(Cl)c1	-15.36
CS(=O)(=O)N1CCc2[nH]cnc2C12CCN(C(=O)c1ccc[nH]1)CC2	-3.217
CS(=O)(=O)N1C[C@H]2CCCN(Cc3ccsc3)[C@H]2C1	3.423
CC(C)NC(=O)C1CN(C(=O)Nc2cccc(F)c2)CC12CCOCC2 (configuration not stated)	-9.202
CN(C)S(=O)(=O)N1CCC(c2nnc(C(F)(F)F)o2)CC1	-22.22
CCN1CCN(C(C)CNC(=O)Nc2nnc(C(C)C)s2)CC1 (configuration not stated)	6.495
CC(C)OC(=O)N1CCCC(c2nccn2Cc2ccncc2)C1 (configuration not stated)	-14.91
Cc1c(S(=O)(=O)N(CCc2ccccc2)Cc2ccn(C)n2)cnn1C	-18.94
CC(C)c1noc(C[S+]([O-])CC(=O)Nc2ccc(F)c(F)c2)n1 (configuration not stated)	-5.973
Cn1nccc1CCC(=O)N1CCC(c2cnccn2)CC1	-6.752
O=C(Cc1cccs1)N1Cc2nc(COCC3CC3)oc2C1	13.82
CCOc1cc(C(=O)N2CCCC(c3noc(C)n3)C2)ccc1OC (configuration not stated)	-9.43

Some entries from above, unchanged:

* CC(C)c1noc(C[S+]([O-])CC(=O)Nc2ccc(F)c(F)c2)n1 (configuration not stated) : -5.973%
* Cc1cc(C)n(-c2ccc(C(=O)NCC(CO)Cc3cccs3)cc2)n1 (configuration not stated) : -24.2%
* COCC(O)CN(C)c1cc(C(F)(F)F)nc(-c2cccnc2)n1 (configuration not stated) : -17.6%
* Cc1cc(C(=O)NCCn2nc3ccccn3c2=O)[nH]n1 : 5.866%
* COCC(=O)N1CCC2(COCc3cnc(NCc4ccco4)nc32)C1 (configuration not stated) : -6.92%
* CN(Cc1ccco1)C(=O)Nc1ccc(=O)n(C)c1 : 9.618%
* NC(=O)[C@@H]1CCCN1C(=O)c1cn(C/C=C/c2ccccc2)nn1 : 1.274%
* Cc1cccc(C)c1OCC(=O)NC(C)c1nnc2n1CCC2 (configuration not stated) : -25.98%
* COC[C@]12COC[C@H]1CN(C(=O)C1CC(F)(F)C1)C2 : -22.11%
* CCc1nc(CCn2cc(-c3nccn3C)nn2)no1 : -34.87%
* Cc1ccc(NC2CCN(C(=O)CCC3CCCO3)CC2)nn1 (configuration not stated) : -3.493%

Source: ChEMBL document CHEMBL3988442, “University of Dundee, Small-Polar-MMV Screening Library” (2021).